Data as given in PubChem BioAssay AID602196 (INSERM, 2012).

- Assay: 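Knock-downs that protect lung cancer cells from cisplatin or sensitise them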
- Cell system: human A549 lung cancer cells
- Reagents: siRNA pair against human genes
- Time to read-out: 48 h transfection before cisplatin; time from cisplatin to read-out not stated
- Conditions: cisplatin at a dose killing half of control-siRNA cells; exact dose and duration not given
- Read-out: 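Shift in cisplatin death relative to control siRNA, from -50 (all cells die) to +50 (no cells die); siRNAs harmful on their own scored 0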
- Direction: two-siRNA summed score (-2 to +2): higher = both siRNAs protect from cisplatin killing; -2 means both sensitise; mean protection from cisplatin (shift in death) and protection from cisplatin (shift in death), siRNA C and protection from cisplatin (shift in death), siRNA D: higher = protection from cisplatin killing
- Hit rule: 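Each siRNA scores 0 if harmful alone by LDH or WST-1, otherwise +1 if it reduces and -1 if it increases cisplatin killing; a gene is active when both siRNAs agree (sum +2 or -2)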
- Meaning of the calls: active = both siRNAs shift cisplatin killing the same way; inactive = no consistent shift, or siRNA harmful alone
The whole screen tested about 23,000 reagents; below is an unselected part. Of all reagents, 455 (2%) are marked active. 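Active includes both protection and sensitisation; some change values fall well beyond the stated -50 to +50 range.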 Unmarked entries are inactive. Not stated in the record: the amount of reagent.

no.	target gene	two-siRNA summed score (-2 to +2)	mean protection from cisplatin (shift in death) (%)	protection from cisplatin (shift in death), siRNA C (%)	protection from cisplatin (shift in death), siRNA D (%)
1	LYN (GeneID 4067)	1	6.8	23.5	-9.9
2	LOC390712	0	2.4	3.6	1.2
3	THBD (GeneID 7056)	0	-1.4	-6.9	4.1
4	AP1M2 (GeneID 10053)	0	5	5	5
5	S1PR2 (GeneID 9294)	0	-11.3	-13.3	-9.2
6	UVRAG (GeneID 7405)	-1	-3.4	-16.2	9.5
7	SELENOS (GeneID 55829)	0	1.6	-0.3	3.5
8	ZNF285 (GeneID 26974)	-1	-14	-14	-14
9	PSME4 (GeneID 23198)	0	6.8	11.4	2.1
10	LOC131076	0	13.2	20.1	6.3
11	KRT1 (GeneID 3848)	-1	-20.3	-6.2	-34.4
12	LOC158957	0	9.9	5.3	14.5
13	CFAP53 (GeneID 220136)	0	-1	-2	0
14	MED24 (GeneID 9862)	-2 (active)	-19.4	-12.8	-26
15	SMIM1 (GeneID 388588)	0	9	12.4	5.6
16	SSTR3 (GeneID 6753)	1	7.7	16.6	-1.2
17	LOC441385	0	9.4	10.2	8.5
18	FLJ40162	0	23.6	16.8	30.5
19	LOC441013	0	5.6	2.8	8.4
20	MIDN (GeneID 90007)	-1	-2.2	12.6	-17.1
21	USP54 (GeneID 159195)	0	-4.6	-5.5	-3.7
22	PPP5C (GeneID 5536)	0	-3.9	-5.2	-2.7
23	VSTM2B-DT (GeneID 284395)	1	2.8	-10.7	16.3
24	C1orf115 (GeneID 79762)	0	-2.5	2.9	-8
25	RBX1 (GeneID 9978)	0	-7.8	-8.8	-6.9
26	CNGB3 (GeneID 54714)	0	14.4	24.8	3.9
27	LOC389217	0	6.4	4.4	8.4
28	PTGDR2 (GeneID 11251)	1	18.3	17.1	19.5
29	LAPTM4A (GeneID 9741)	0	-1.8	-1.8	-1.9
30	TOM1L1 (GeneID 10040)	1	12.6	14.2	11
31	H3C14 (GeneID 126961)	0	11.5	12.5	10.5
32	DNAJB6P1 (GeneID 387820)	0	9	1.1	16.9
33	UBE2Z (GeneID 65264)	0	-0.3	-2.1	1.6
34	MAGEA10 (GeneID 4109)	0	4.6	16.5	-7.3
35	CCKAR (GeneID 886)	0	1.8	-0.7	4.2
36	KRT26 (GeneID 353288)	0	-10.4	-6.2	-14.6
37	LOC441049	1	13	1	25
38	SH2D4A (GeneID 63898)	0	-0.5	9.6	-10.5
39	PDLIM5 (GeneID 10611)	1	5.1	15.9	-5.8
40	H1-2 (GeneID 3006)	1	10.9	0.3	21.5
41	LOC389389	1	16.4	12.1	20.7
42	BTRC (GeneID 8945)	0	19.9	14.2	25.7
43	TTC9C (GeneID 283237)	0	10.7	9.7	11.8
44	TAF1L (GeneID 138474)	0	2.1	5.5	-1.4
45	TMEM154 (GeneID 201799)	0	8.6	4.7	12.5
46	PBX3 (GeneID 5090)	0	1.3	5.9	-3.2
47	GORAB (GeneID 92344)	0	3.2	1.7	4.7
48	TAGLN3 (GeneID 29114)	0	3.3	5.6	1
49	NRP2 (GeneID 8828)	0	-1.6	1.7	-5
50	HSD3B7 (GeneID 80270)	0	11	10.5	11.5
51	SKA2 (GeneID 348235)	1	12.3	11.1	13.5
52	CD59 (GeneID 966)	0	18.1	14.8	21.5
53	CREBBP (GeneID 1387)	0	3.7	5	2.5
54	CFH (GeneID 3075)	0	2.3	10.4	-5.7
55	H2AC11 (GeneID 8969)	1	15.8	8.6	23
56	LOC441576	0	0.3	3.4	-2.8
57	FGF5 (GeneID 2250)	0	8	4.8	11.1
58	ZG16B (GeneID 124220)	0	-1.1	-6.5	4.4
59	PDXP (GeneID 57026)	0	5.8	-2.2	13.8
60	FBXO5 (GeneID 26271)	0	-32.1	-14.5	-49.8
61	LOC401537	-1	-4.3	-22.6	13.9
62	UQCC1 (GeneID 55245)	0	7.5	15.6	-0.6
63	FBXW4P1 (GeneID 26226)	-1	-20.3	-37	-3.6
64	RSRC1 (GeneID 51319)	0	2.3	3.7	1
65	GPR25 (GeneID 2848)	0	9.1	-7	25.1
66	TRPV5 (GeneID 56302)	0	6.6	25.2	-12.1
67	GLT1D1 (GeneID 144423)	0	2.8	-3.5	9.1
68	FLJ34077	1	16.2	13	19.4
69	RANBP9 (GeneID 10048)	0	6.2	36.2	-23.8
70	ACBD5 (GeneID 91452)	0	6.8	20.2	-6.5
71	MGC13275	2 (active)	24.7	28.4	21.1
72	DOCK11 (GeneID 139818)	1	10.4	7.2	13.6
73	RBM15-AS1 (GeneID 440600)	1	11	15.3	6.7

Entries listed so far whose target name starts with U or u:
target gene	two-siRNA summed score (-2 to +2)	mean protection from cisplatin (shift in death) (%)	protection from cisplatin (shift in death), siRNA C (%)	protection from cisplatin (shift in death), siRNA D (%)
UVRAG (GeneID 7405)	-1	-3.4	-16.2	9.5
USP54 (GeneID 159195)	0	-4.6	-5.5	-3.7
UBE2Z (GeneID 65264)	0	-0.3	-2.1	1.6
UQCC1 (GeneID 55245)	0	7.5	15.6	-0.6
